Measured values: the supplement of paper PMC3334620
Whole data set: some 33,000 sequences, median “E-score (-0.5 to 0.5)” near -8e-05, cut for the highest 2% near 0.23. Some of the results follow.

Each sequence was assayed against T1, Nrg2 (UniProt P38082) (assay: PBM E-score (8-mer binding enrichment) (E-score (-0.5 to 0.5)); higher = stronger / more preferred TF binding). Settings: protein concentration: 100 nM; construct: GST-full length.
T1 sequence: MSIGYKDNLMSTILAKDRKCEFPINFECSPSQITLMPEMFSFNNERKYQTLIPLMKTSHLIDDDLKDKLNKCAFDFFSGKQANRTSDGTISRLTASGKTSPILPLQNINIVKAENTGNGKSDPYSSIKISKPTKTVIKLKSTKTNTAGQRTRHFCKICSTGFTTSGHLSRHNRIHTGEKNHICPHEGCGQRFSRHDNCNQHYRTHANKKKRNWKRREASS
How it was run: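 Full-length yeast transcription factors or their DNA-binding domains, GST-tagged and expressed with PURExpress, were applied at about 100-200 nM to universal all-10-mer Agilent arrays. These arrays had been made double-stranded by primer extension on fresh or once-stripped slides. Detection used fluorescent anti-GST, normalisation used masliner, and E-scores for ungapped eight-base words pooled with reverse complements came from the Universal PBM Analysis Suite.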

Sequence	PBM E-score
CTTGTACC	0.0322
GCTTTCCC	-0.0594
AAGGTTAC	0.0901
ATTCAATG	0.0492
AAATGGCT	0.0362
ACTACTAC	0.0486
ATCGTCTC	-0.0282
TGCATGCA	0.233
AGCTCGTA	0.0247
AGCTCACT	-0.0273
CCAGCCAA	-0.0522
CGTTGCTA	0.059
AGTTCGTG	0.0974
AGCTATCG	-0.0852
CGTGTTGA	-0.129
CTTAACGA	0.123
GTACTTGA	-0.156
CCTCGTAG	-0.083
CGCGGCAA	0.0589
ATTTCATA	0.143
ACTACATG	0.0529
GTCAGGCA	-0.108
CGGATACG	-0.0756
ATCTACGG	0.00925
ACAAAGAG	-0.0475

Sequence	PBM E-score
CAGTCGGC	-0.12
CAGTGATG	-0.0399
AAAAAATC	0.126
ACTTGGAC	0.157
CCGCTGAG	-0.0786
GGGGGGAC	-0.374
ACCTGCCG	0.0141
ACCTTCTC	0.0642
ATTGCGCC	-0.0677
AGCGGCTA	0.0469
TCAATGAA	0.0879
AGACATAG	-0.081
CGAACATA	0.158
CTATGTGA	0.0144
AGGTTAGC	-0.202
AGAACACA	-0.00037
TAGACCAA	0.121
GCACCTAC	-0.209
GGATCCCA	-0.0316
CAGTCAAG	0.0398
TATTCGAA	0.00532
CACCGGTA	-0.116
CAGCTGTA	-0.00792
CAGAAAAC	0.0955
GTCAACAC	0.0472

Sequence	PBM E-score
ACGGCTCG	0.0931
CAACAGAC	0.043
TGACGGCA	-0.135
AATGTACT	0.225
CTAGTCCC	-0.024
CCATCGTC	-0.0303
CACTGGTA	-0.0865
ATCACTAG	-0.0341
AATAGAAT	0.00976
GGTACACC	-0.245
GAGTCCAA	-0.0123
GTACGCAC	-0.0104
ATCGCCCG	0.0967
ACCGGTCA	-0.103
CCAGAACG	0.0997
AGCAGGCT	-0.212
ACTTCTCT	-0.0324
CTGACTTA	0.0683
AATTGCCC	0.014
TACCGTGA	-0.078
GAGACGGA	-0.00134
CTTACATC	0.0569
ATGGTGCA	-0.0977
ATAGAGCG	-0.0355
CTTGAGTC	-0.0018

Sequence	PBM E-score
ACTGTCAA	-0.00935
CAGATCTA	-0.267
CACCATGA	-0.00138
ATCACATA	0.156
GACGGTAC	-0.0512
GGATTCCA	0.0661
CACGGGTC	0.0696
CGCCCCTC	-0.0933
GATGAGCC	-0.0536
GGCTTCCA	-0.186
ATGATAAC	0.108
AGGTATGA	0.0294
ATGCAACG	-0.0466
ACAACGTC	-0.0313
CGCGAACA	0.264
CTTTCCGA	-0.0403
ATGACCGC	-0.059
ACTGATCA	0.109
AATTGCTC	-0.145
ATAGATTA	0.185
GCCCGAAA	0.206
CCGCTTTA	-0.0859
GGGTGTTA	0.0762
AGACGCTG	-0.11
GCCGTCCA	0.0263

Sequence	PBM E-score
CATCGCAG	-0.115
CCCTAGCG	-0.134
ACAATCAA	0.0743
GACGGAGC	-0.195
AAATGATG	0.184
AACGACAA	0.106
AGATTATC	-0.0331
ATCGGTGA	0.0722
ATTACCGA	0.0314
AGTCCACG	0.0976
CACATTCG	-0.00134
CTCCCTAA	-0.22
CCGTTATC	-0.0633
AGCGAAGG	0.0397
AATGCTCA	-0.0147
GAAGCGCA	-0.0254
GCCTCTAC	-0.0801
ATAAGTTA	0.197
GGTAATAC	0.0271
AGGGTCAA	0.236
CCAGCAGC	-0.124
ACCGATAA	0.00346
GTCGTAAC	-0.014
AGCCCTTA	-0.16
ACTAGCAG	0.0356

Sequence	PBM E-score
CTGTAGTC	-0.00649
AGCTCTAC	-0.0559
GAATTCCC	-0.129
CCTTGCCA	-0.104
ATACTAAG	0.0208
ATGCTGCC	-0.0349
CCGAGAAA	0.17
CTCAGTCC	-0.323
CAACCATA	0.0591
CGAATCAA	0.22
CGCGTGCA	-0.103
CCGTGTAG	0.031
GCGTAAGC	-0.212
CAGCTATA	0.0723
CGCTAAGA	-0.0436
ATGCATAG	-0.0009
GGGAGATA	0.138
AGTATGAT	0.223
TCATCGAA	0.00841
CGAACACA	0.135
AGAGAATC	0.058
CCGATCGC	0.0306
GTCTAAAA	-0.0766
CCGGTGAG	-0.149
GGCGAGCA	0.111

Sequence	PBM E-score
ACGTTTTG	-0.0711
CGCGGTTA	0.0611
AAAGGTGA	-0.124
GGATTGCA	0.133
ATAAACGG	0.0585
GATGATAC	-0.0297
TACATACA	0.199
AGAAAAGG	0.0545
GCTAATAA	0.103
ACCGTAGG	-0.28
CACCCCTG	-0.0851
CAGGCAGG	-0.111
AATCGTCA	0.131
GCCCGCGC	0.156
CGGCGACG	-0.0744
CGCGTTAA	0.1
CCTATCCG	-0.087
AATCGTGA	-0.154
CCTGTACG	-0.0944
AGTGTCGG	-0.0219
CACGTCGG	-0.0592
CAATCGGA	0.181
GACGTATA	-0.135
ACGTCAGT	-0.122
CACGCCAA	-0.0877

As entered above:
Value for AATCGTGA under PBM E-score: -0.154
Value for ACCGTAGG under PBM E-score: -0.28
Value for CAGGCAGG under PBM E-score: -0.111
Value for AATCGTCA under PBM E-score: 0.131
Value for AAAGGTGA under PBM E-score: -0.124

(list continues)

Sequence	PBM E-score
ATAAAAGC	-0.0139
GATGAGGC	-0.121
TTACCAAA	0.00847
AGTGGTTC	-0.0506
CCATATAA	0.118
AGCGTGCG	0.031
CCGCCCTA	-0.172
CATTTAGC	-0.102
GTAGAAGA	-0.164
AATACGAA	0.0961
CACAACCC	0.0202
AACAGCTA	0.101
GAAGAGAC	-0.0499
GCAAAGGC	-0.141
CACATAAG	0.0356
ATTAGAAA	0.0627
AGTATACT	-0.169
CACCGGGA	-0.203
GAGCGTAA	0.049
AGCCAACT	-0.124
ACGCCGAT	-0.0002
AACTGATT	-0.0472
GGAAGACC	-0.163
CCGTTACG	-0.188
GACGAGTC	-0.0895

Sequence	PBM E-score
AGCGTAAC	0.00113
AAAGTTGG	0.132
AAAATGAT	0.222
GGTGCCAC	-0.207
TAATGATA	0.243
CGCTGCGA	0.0021
ACGCTCTA	-0.258
CTTTCCCA	-0.104
AGTGGGTC	-0.175
CTCCGTCA	-0.153
AGCGCAAG	0.0342
CTCAATCA	0.0928
CCTGGCCC	0.12
AGGCACCT	-0.177
AATCTGCT	-0.0883
AGGTTGCC	-0.0813
ACGTAACG	-0.111
CTAAGTAA	0.0717
GACCGTGA	-0.0508
CACCCATC	-0.0202
AAAGCAAA	0.102
CAATTAAG	-0.0123
AAACAGGT	-0.0166
AGCTGTTC	-0.075
CTGTGGCC	-0.12

Part of the list above, with bars between the fields:
Sequence | PBM E-score
AAAATGAT | 0.222
GGTGCCAC | -0.207
TAATGATA | 0.243
CGCTGCGA | 0.0021
ACGCTCTA | -0.258

More entries follow:

Sequence	PBM E-score
AAGTTCAA	0.134
AATCTCCC	-0.0515
AATCAGGT	0.135
TCAACTCA	-0.0189
GAGCCAAA	0.0628
AGCTACCA	-0.0448
CTATAAAG	-0.105
GATTTGCC	0.0874
CCCTTTGA	-0.0356
GCAGCCCA	-0.0737
AAACCTAG	-0.00692
GCCGCACA	-0.0789
ATATAACC	0.145
AAAATATA	0.00189
AGTTTGGA	-0.00777
ATGCAAGG	-0.0933
GCCAGGAC	-0.0334
TAGGGACA	0.0336
AAGAAGGG	-0.0449
GGAAGAAA	-0.00468
ACGCACGG	0.123
CAGGTGCC	-0.151
GACTCATC	-0.166
ATTCGGTA	0.074
AGATGGAC	-0.0062

Nothing new here: an excerpt of the list.
Sequence	PBM E-score
ATGCAAGG	-0.0933
GCCAGGAC	-0.0334
TAGGGACA	0.0336
AAGAAGGG	-0.0449
GGAAGAAA	-0.00468
ACGCACGG	0.123
CAGGTGCC	-0.151

Next part:

Sequence	PBM E-score
GTCGATAA	-0.0484
ATGGGGGA	-0.356
CAACTTGA	0.191
AAAGAAGT	-0.00026
ACTGAGCA	-0.0638
GAAGATTA	0.0238
AACGAATT	0.189
TCATCACA	-0.0979
CCAACAAA	0.023
ACACAGCT	-0.0102
TAGGTGCA	-0.0534
ACAGGAAG	0.0432
GAAGAACA	0.155
AAACCTAA	0.0731
CCCAGCAA	0.0725
GCTAACCC	-0.0512
GTCAAGGA	-0.209
ATAGCTAG	-0.0688
CGAGAGGA	0.0593
CGACGGTA	0.0706
CATTGCAG	0.0963
GATTTCTA	0.0626
CCAGAGAC	-0.0459
AGTTGACC	0.115
ACGAATGG	0.168

Sequence	PBM E-score
AATGCGCT	0.023
CGCAACCA	0.162
CTTTGGGC	-0.0143
CAACGCTA	-0.0189
GATGTAGA	-0.0926
GGCACCAA	-0.0112
ATTCGGAC	0.118
ATCGGTCG	-0.007
AACGCAAC	0.154
ACTAATAT	0.211
GTAAATGA	0.114
AAAGCTCG	-0.0298
GGTCTACA	-0.0592
AATTACAT	0.101
CGGGACAA	-0.11
CAGATGGC	-0.107
CATATGGC	-0.00136
ACATGAAA	-0.0252
GTTGGTGA	0.158
ATTTGAGG	-0.111
GGTCACTA	-0.0723
CAGGGAAC	0.0728
AATTCAGT	-0.0207
AATACGCT	-0.00046
AAGAACCA	0.0577

Sequence	PBM E-score
AAATGTGC	0.205
GGCTCCGA	-0.138
TGCGACCA	0.0981
CCGTGTGA	-0.0736
CGTGCAGA	-0.114
CATTCGAG	0.0694
AATTAAGG	0.0995
TCTCGGAA	0.0924
AGCCAAAG	-0.155
GGAGAAAC	-0.0128
TCACCGGA	-0.114
CCCCTTTC	-0.112
CCCCACAC	0.0348
CAAGAGAC	-0.117
ATCGCTGA	0.102
CGCGGCGC	0.115
ACATAGAT	0.0214
ATGTGATG	-0.111
ATCAAAGC	0.0951
ACAGCTGT	0.196
TAGCTACA	0.0824
TAGCGAAA	0.0316
TCGGCCGA	0.12
AGCCCAGG	-0.243
GACTTGTA	-0.227

Sequence	PBM E-score
TCCAGACA	-0.0642
AACTGAGT	0.00985
CCTCCTCA	-0.281
AATGGTAT	0.0683
AGACACGC	-0.202
GTAACTCA	-0.0308
GAGACGCC	-0.154
ACACTGCG	-0.0192
CAAACGGA	0.00713
AAGGAGGG	-0.163
CTACCTCC	0.0678
AAAGTGCA	-0.00715
AAAAAGGC	-0.0272
ACCCATAC	0.131
ACTGCCCT	-0.0634
AATCTCGA	0.142
CGTGGCCC	-0.283
CGGATAAG	0.0735
CGACTGCG	-0.0845
